HELM strings list residues between dots; [ac] is acetyl, [am] amide, other brackets name non-standard units. Starred links: 1 amine or outer side, 2 acyl side, 3 side chain; linkers in the order of their positions; H or OH if unused. Non-standard residues stand in square brackets, D forms with d. X1 = CC(C)[C@@H](C(=O)[*:2])N(C[C@@H](N)Cc1ccccc1)[*:1]
Assays:
[1] = general procedure: Fmoc solid-phase peptide synthesis; Fmoc-Gln(Trt)-Alko resin; HBTU/HOBt; DCC/HOBt for final Boc-Phe-OH; conditions: whole synthesis, scale 0.03 mmol
[2] = general procedure: Fmoc solid-phase peptide synthesis; Fmoc-Gln(Trt)-Alko resin (WATANABE CHEMICAL); HBTU/HOBt; DCC/HOBt for final Boc-Phe-OH; conditions: whole synthesis, UV 220 nm, scale of the general procedure 0.03 mmol

Row | Substance | crude mass [1] | isolated mass [1] | final HPLC purity [2] [%]
1 | PEPTIDE1{F.V.P.I.F.T.Y.G.E.L.Q.R.M.Q.E.K.E.R.N.K.P.Q}$$$$V2.0 | about 30 mg | about 5.0 mg | 96.0
2 | H-[X1]PIFTYGELQRMQEKERNKPQ-OH (N-terminus and C-terminus assumed; SMILES CC[C@H](C)[C@H](NC(=O)[C@@H]1CCCN1C(=O)[C@@H](NC[C@@H](N)Cc1ccccc1)C(C)C)C(=O)N[C@@H](Cc1ccccc1)C(=O)N[C@H](C(=O)N[C@@H](Cc1ccc(O)cc1)C(=O)NCC(=O)N[C@@H](CCC(=O)O)C(=O)N[C@@H](CC(C)C)C(=O)N[C@@H](CCC(N)=O)C(=O)N[C@@H](CCCNC(=N)N)C(=O)N[C@@H](CCSC)C(=O)N[C@@H](CCC(N)=O)C(=O)N[C@@H](CCC(=O)O)C(=O)N[C@@H](CCCCN)C(=O)N[C@@H](CCC(=O)O)C(=O)N[C@@H](CCCNC(=N)N)C(=O)N[C@@H](CC(N)=O)C(=O)N[C@@H](CCCCN)C(=O)N1CCC[C@H]1C(=O)N[C@@H](CCC(N)=O)C(=O)O)[C@@H](C)O) | about 30 mg | about 5.0 mg | 98.7

— patent publication US8710184B2 (Daiichi Sankyo Company, Limited, priority 2009, dated 2014)
